From the supplement of paper PMC12819154, “High-throughput peptide-centric local stability assay extends protein–ligand identification to membrane proteins, tissues and bacteria” (Nature Structural & Molecular Biology, 2025)
The list shows a part of the results. Most entries show no effect beyond the scatter of the controls.

Amino acid sequences for entries named in this document (tags omitted). A change or cut given only in a name is not applied to a line headed by its entry.
UniProt O95685: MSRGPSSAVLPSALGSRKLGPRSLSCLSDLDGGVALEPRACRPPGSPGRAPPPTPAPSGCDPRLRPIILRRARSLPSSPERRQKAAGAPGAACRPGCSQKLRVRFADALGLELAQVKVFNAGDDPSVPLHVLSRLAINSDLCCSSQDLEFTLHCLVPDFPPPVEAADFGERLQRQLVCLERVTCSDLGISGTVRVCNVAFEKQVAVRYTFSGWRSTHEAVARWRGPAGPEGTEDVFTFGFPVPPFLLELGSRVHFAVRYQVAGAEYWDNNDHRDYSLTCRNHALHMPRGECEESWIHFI
UniProt O94941: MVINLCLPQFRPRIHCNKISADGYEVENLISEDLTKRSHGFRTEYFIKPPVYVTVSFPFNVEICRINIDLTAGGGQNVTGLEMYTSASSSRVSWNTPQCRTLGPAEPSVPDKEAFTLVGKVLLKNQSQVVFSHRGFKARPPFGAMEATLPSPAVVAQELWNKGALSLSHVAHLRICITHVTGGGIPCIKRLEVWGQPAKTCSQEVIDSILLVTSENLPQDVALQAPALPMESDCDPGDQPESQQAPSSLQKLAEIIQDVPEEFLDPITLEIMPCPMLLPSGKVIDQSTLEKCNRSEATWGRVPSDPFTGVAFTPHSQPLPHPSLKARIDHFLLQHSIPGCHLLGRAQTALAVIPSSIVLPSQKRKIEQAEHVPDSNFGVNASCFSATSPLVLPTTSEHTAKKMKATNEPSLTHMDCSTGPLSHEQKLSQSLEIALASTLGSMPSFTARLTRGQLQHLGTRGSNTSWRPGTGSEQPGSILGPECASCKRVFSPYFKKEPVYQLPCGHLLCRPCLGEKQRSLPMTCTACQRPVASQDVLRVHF
UniProt O95985: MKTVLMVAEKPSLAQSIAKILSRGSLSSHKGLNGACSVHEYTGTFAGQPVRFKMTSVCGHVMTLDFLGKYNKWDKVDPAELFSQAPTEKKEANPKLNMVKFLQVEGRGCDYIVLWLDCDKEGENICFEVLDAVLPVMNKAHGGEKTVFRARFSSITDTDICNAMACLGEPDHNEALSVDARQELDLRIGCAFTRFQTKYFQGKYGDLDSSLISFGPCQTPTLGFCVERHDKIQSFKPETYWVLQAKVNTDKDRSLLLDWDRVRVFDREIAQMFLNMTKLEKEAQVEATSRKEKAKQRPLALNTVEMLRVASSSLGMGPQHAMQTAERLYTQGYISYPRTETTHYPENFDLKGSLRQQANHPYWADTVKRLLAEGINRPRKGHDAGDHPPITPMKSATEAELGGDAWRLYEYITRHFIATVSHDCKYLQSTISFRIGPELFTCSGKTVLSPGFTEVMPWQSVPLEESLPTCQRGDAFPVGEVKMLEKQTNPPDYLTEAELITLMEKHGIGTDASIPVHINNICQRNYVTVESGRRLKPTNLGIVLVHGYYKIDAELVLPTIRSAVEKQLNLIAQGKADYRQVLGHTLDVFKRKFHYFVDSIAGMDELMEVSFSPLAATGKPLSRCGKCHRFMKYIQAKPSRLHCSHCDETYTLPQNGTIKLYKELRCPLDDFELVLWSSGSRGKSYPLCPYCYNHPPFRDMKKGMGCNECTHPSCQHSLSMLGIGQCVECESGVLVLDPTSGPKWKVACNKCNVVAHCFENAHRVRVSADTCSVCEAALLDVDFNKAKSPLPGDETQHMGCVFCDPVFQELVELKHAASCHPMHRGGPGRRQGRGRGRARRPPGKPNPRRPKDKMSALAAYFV
UniProt O75582, whole entry, looked up: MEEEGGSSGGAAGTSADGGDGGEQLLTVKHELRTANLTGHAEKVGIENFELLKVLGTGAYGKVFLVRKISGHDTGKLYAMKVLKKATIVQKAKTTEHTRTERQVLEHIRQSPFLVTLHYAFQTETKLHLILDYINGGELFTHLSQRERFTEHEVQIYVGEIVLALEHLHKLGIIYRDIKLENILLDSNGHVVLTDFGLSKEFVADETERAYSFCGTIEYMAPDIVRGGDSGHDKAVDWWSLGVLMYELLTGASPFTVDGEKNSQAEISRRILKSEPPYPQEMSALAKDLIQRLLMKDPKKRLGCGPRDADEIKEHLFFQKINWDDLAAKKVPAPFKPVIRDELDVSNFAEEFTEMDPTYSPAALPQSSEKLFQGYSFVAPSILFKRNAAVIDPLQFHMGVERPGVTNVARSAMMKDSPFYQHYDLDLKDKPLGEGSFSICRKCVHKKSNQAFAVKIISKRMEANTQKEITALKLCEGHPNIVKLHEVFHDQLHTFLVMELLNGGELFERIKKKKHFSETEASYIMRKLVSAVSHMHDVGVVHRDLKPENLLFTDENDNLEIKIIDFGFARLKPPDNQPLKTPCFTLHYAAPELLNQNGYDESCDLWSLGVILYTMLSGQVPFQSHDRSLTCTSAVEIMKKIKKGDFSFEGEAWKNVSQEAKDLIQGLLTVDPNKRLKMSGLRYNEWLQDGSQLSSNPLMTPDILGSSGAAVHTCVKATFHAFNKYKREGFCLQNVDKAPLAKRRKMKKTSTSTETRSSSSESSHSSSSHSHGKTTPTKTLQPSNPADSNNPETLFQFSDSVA
UniProt O94851, whole entry: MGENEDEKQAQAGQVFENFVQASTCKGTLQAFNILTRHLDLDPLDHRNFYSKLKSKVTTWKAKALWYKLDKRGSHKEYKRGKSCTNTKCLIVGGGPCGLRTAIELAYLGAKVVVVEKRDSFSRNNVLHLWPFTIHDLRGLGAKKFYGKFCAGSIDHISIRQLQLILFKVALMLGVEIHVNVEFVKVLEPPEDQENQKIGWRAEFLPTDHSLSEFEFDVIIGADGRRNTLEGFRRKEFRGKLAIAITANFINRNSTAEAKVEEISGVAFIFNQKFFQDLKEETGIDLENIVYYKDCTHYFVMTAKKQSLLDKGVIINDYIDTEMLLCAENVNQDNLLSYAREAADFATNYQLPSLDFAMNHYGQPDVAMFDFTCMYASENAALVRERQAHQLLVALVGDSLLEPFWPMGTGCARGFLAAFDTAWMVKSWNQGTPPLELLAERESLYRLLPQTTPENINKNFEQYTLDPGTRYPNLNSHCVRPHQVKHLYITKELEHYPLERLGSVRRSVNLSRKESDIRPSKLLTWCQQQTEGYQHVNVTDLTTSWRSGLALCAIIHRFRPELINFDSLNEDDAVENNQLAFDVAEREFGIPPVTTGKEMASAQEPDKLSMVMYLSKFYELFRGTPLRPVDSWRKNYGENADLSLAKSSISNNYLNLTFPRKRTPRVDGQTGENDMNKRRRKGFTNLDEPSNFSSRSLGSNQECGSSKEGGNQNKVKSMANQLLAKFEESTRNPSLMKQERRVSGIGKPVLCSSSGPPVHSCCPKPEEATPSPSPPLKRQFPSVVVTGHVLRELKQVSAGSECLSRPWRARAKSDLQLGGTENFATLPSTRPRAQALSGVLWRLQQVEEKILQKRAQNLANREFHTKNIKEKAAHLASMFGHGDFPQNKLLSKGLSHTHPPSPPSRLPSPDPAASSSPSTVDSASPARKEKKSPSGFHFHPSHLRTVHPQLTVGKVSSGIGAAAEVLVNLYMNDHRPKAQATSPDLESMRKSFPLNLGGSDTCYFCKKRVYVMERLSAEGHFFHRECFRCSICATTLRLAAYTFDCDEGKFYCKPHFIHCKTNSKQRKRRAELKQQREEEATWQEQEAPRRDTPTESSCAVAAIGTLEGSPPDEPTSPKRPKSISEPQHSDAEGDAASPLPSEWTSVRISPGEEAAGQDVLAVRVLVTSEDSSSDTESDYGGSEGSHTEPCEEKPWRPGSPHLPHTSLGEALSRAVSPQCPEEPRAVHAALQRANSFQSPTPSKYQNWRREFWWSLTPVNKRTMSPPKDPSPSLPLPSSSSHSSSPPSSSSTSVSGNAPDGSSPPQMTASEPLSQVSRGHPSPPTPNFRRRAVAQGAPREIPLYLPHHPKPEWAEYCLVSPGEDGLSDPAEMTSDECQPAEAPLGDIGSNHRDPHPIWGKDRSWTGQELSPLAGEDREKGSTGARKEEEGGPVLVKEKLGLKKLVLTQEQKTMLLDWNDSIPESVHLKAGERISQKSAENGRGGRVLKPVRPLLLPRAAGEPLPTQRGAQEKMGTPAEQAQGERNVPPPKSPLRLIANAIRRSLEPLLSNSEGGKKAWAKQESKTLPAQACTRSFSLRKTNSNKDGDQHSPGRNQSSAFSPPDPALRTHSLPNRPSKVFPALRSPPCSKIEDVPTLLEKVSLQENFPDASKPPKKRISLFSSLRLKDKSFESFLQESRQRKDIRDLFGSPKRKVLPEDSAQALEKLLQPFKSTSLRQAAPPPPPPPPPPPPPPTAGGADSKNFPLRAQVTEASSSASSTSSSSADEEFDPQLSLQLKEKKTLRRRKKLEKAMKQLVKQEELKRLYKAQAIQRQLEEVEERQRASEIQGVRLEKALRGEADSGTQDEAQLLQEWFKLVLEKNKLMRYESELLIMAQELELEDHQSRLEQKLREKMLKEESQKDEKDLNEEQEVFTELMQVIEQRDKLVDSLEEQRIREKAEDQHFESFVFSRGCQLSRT
UniProt O75475: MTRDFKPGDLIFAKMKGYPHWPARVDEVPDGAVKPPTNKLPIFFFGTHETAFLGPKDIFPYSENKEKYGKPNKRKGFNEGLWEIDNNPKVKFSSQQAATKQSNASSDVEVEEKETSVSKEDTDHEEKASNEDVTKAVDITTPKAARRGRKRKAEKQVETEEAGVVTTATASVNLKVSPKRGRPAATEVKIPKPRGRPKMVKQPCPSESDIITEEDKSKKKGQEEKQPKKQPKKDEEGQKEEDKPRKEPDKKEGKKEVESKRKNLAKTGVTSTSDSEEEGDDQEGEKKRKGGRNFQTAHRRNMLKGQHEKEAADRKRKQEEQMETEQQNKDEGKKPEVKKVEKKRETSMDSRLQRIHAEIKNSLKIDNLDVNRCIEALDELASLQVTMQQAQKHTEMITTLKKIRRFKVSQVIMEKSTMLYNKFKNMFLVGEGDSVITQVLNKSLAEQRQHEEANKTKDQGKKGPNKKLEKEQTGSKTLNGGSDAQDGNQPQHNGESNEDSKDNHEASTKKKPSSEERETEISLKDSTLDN
UniProt O75486: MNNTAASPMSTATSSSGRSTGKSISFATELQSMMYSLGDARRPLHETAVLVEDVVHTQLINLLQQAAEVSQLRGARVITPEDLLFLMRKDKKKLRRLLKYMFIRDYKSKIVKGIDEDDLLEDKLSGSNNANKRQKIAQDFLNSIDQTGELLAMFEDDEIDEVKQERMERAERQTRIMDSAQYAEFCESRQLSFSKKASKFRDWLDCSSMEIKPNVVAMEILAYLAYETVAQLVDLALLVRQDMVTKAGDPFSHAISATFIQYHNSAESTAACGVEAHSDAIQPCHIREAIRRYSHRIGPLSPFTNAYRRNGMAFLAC
UniProt O75427: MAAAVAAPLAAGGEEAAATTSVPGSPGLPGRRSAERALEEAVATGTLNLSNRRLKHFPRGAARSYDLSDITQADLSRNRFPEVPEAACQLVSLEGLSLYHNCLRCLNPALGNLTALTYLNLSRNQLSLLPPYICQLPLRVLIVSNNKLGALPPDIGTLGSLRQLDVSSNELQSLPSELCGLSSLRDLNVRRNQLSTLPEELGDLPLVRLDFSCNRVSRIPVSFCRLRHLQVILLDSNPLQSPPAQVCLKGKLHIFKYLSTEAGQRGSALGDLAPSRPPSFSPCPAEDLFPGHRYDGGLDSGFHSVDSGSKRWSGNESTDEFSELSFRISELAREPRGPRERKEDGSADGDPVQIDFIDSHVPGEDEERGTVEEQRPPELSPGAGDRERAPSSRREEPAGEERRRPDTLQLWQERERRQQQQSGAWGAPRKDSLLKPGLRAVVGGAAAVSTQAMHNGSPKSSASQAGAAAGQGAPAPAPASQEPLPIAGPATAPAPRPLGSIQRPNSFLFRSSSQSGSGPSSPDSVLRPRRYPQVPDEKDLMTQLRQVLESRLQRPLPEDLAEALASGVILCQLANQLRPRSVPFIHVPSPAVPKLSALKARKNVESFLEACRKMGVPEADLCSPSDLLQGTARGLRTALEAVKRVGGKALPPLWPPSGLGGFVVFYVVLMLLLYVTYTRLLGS
UniProt O95232: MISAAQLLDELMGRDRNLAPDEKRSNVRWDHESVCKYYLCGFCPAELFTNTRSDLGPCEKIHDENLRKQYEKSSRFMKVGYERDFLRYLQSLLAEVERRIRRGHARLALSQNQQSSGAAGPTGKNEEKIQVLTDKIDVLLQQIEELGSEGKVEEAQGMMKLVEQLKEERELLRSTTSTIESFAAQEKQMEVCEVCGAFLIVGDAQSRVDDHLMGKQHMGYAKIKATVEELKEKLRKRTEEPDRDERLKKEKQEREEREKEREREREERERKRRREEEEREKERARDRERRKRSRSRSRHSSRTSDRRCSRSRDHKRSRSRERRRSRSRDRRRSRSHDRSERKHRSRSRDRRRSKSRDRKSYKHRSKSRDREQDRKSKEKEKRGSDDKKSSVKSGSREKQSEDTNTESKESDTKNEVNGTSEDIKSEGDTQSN

The targets below were run with Cc1nc(Nc2ncc(C(=O)Nc3c(C)cccc3Cl)s2)cc(N2CCN(CCO)CC2)n1 [dasatinib] (assay: log2 fold change of tryptic peptide abundance, ligand vs vehicle (limited proteolysis) (log2 ratio); higher = more trypsin-susceptible (destabilized)). Conditions: ligand concentration: 5 uM; sample: K562 cleared lysate.

| Target | log2 fold change |
| --- | --- |
| PPP1R3D (peptide sequence: GPSSAVLPSALGSR, peptide start residue: 4) (UniProt O95685) | 0.0571 |
| UBOX5 (peptide sequence: AQTALAVIPSSIVLPSQKR, peptide start residue: 346) (UniProt O94941) | 0.405 |
| TOP3B (peptide sequence: TVLMVAEKPSLAQSIAK, peptide start residue: 3) (UniProt O95985) | -0.244 |
| UniProt O75582 (peptide sequence: SLTCTSAVEIMKK, peptide start residue: 628) | -0.899 |
| MICAL2 (peptide sequence: FEESTRNPSLMK, peptide start residue: 726) (UniProt O94851) | -0.299 |
| PSIP1 (peptide sequence: NFQTAHRR, peptide start residue: 293) (UniProt O75475) | -1.06 |
| UBE4B (peptide sequence: HLLNSPTDPFNR, peptide start residue: 1261) (UniProt O95155) | 0.184 |
| SUPT3H (peptide sequence: GIDEDDLLEDKLSGSNNANKR, peptide start residue: 113) (UniProt O75486) | 0.0883 |
| LRCH4 (peptide sequence: RRPDTLQLWQER, peptide start residue: 403) (UniProt O75427) | -0.124 |
| UniProt O95232 (peptide sequence: SDLGPCEKIHDENLR, peptide start residue: 53) | -0.0977 |
